Measurements as given in PubChem BioAssay AID2685 (National Center for Advancing Translational Sciences (NCATS), 2010).
Some of the results follow. The main result of the screen is listed elsewhere. These columns were measured beside it and carry no call. Compounds called inactive in the main read-out are mostly missing here. The note in brackets gives the kind of curve behind each potency; many fits are weak.

Assay: qHTS Assay for Lipid Storage Modulators in Drosophila S3 Cells;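 on cell number change: cells counted by Cell Tracker Red CMTPX staining in the red channel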
Settings: BODIPY lipid droplet fluorescence, 18-24 h; for cell number change: measured here: cell count max response, cells fed with added oleic acid
Outline: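 Drosophila S3 cells got compounds at several concentrations plus oleic acid (400 uM solution). Laser-scanning cytometry with 488 nm excitation read lipid droplets at 500-530 nm and cells at 575-640 nm. Percent activity was relative to 20 uM Triacsin C.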

[1] = measured here: cell number channel AC50, cells fed with added oleic acid
[2] = measured here: lipid fluorescence (Fed channel) AC50, cells fed with added oleic acid

Row | SMILES | cell number change [%] | AC50 [1] | AC50 [2]
1 | COc1cc(CC(=O)OCc2cccc([N+](=O)[O-])c2)cc(OC)c1OC | 20.6 | – | –
2 | O=C(CSC1=N/C(=C/c2ccco2)C(=O)N1c1ccc(OC(F)F)cc1)NC1CCS(=O)(=O)C1 (configuration not stated) | 78 | 7.31 µM [rising, partial curve] | –
3 | Cc1cc(Oc2ccc(=O)n(C)n2)nc(SCc2ccccc2)n1 | 57.9 | 23.1 µM [rising, single point] | 0.00517 µM [falling, full curve, poor fit]
4 | O=C(CN1CCCCC1)Nc1nc(-c2ccc(F)c(F)c2)cs1 | 21.8 | – | 9.2 µM [rising, partial curve]
5 | Cc1ccccc1-c1noc(-c2ccccc2F)n1 | – | 1.46 µM [rising, partial curve] | 1.46 µM [rising, partial curve]
6 | CC(=O)NC(CC(=O)Nc1nc(-c2ccc(N(C)S(C)(=O)=O)cc2)cs1)c1ccccc1 (configuration not stated) | -2.94 | – | 6.51 µM [falling, single point]
7 | Nc1cc(N)nc(SCC(=O)Nc2ccccc2N2CCOCC2)n1 | 17.2 | – | 8.2 µM [rising, partial curve]
8 | Cc1ccc(S(=O)(=O)N2CCOCC2)cc1NC(=O)COC(=O)c1ccccc1OCc1c(C)noc1C | -83.3 | 29.1 µM [falling, partial curve, poor fit] | –
9 | CCCCOCCCNC(=O)c1ccc(OCC)cc1 | -10.3 | – | 25.9 µM [rising, single point]
10 | COc1ccc(NC(=O)/C=C/c2cccc(C(F)(F)F)c2)cn1 | 17.5 | – | –
11 | CC(=O)c1ccc(N2CCN(C(=O)c3noc4c3CSc3ccccc3-4)CC2)cc1 | -3.06 | – | 10.3 µM [rising, partial curve]
12 | NC(=O)COC(=O)C1c2ccccc2Oc2ccccc21 | -24.3 | – | 4.11 µM [falling, single point]
13 | CCn1cc(C(=O)OCC(=O)N2C(C)CCCC2C)c(=O)c2ccc(C)nc21 (configuration not stated) | – | 0.184 µM [rising, full curve, poor fit] | 0.116 µM [rising, full curve, poor fit]
14 | CN(CC(=O)NC(=O)NC1CCCCC1)CC(=O)Nc1ccc(OC(F)(F)F)cc1 | -1.76 | 4.11 µM [falling, single point] | –
15 | O=C(CC(O)(c1ccccc1)C(F)(F)F)c1cccs1 (configuration not stated) | – | 6.51 µM [falling, single point] | 6.51 µM [falling, single point]
16 | O=C(c1ccc(Cl)cc1)N1CCC(C(=O)N2CCN(c3ncccn3)CC2)CC1 | -8.6 | – | –
17 | CC(=O)C1(C)OC(N)=C(C#N)C(c2ccccc2)C1(C#N)C#N (configuration not stated) | 121 | 14.6 µM [rising, partial curve] | 1.64 µM [rising, partial curve]
18 | CC(/C=C/c1ccc(N(C)C)cc1)=N\N=C(/N)SC1CC(=O)N(c2ccc(C(=O)O)cc2)C1=O (configuration not stated) | 9.99 | – | 0.00461 µM [rising, full curve, poor fit]
19 | CSc1ncc(Cl)c(C(=O)Nc2ccccc2Br)n1 | 33.1 | 29.1 µM [rising, single point] | –

Whole records, quoted from the list. Values in the order: cell number change [%] | AC50 [1] | AC50 [2]
O=C(CC(O)(c1ccccc1)C(F)(F)F)c1cccs1 (configuration not stated) is entered as – | 6.51 µM [falling, single point] | 6.51 µM [falling, single point]
CCn1cc(C(=O)OCC(=O)N2C(C)CCCC2C)c(=O)c2ccc(C)nc21 (configuration not stated) is entered as – | 0.184 µM [rising, full curve, poor fit] | 0.116 µM [rising, full curve, poor fit]
COc1ccc(NC(=O)/C=C/c2cccc(C(F)(F)F)c2)cn1 is entered as 17.5 | – | –
COc1cc(CC(=O)OCc2cccc([N+](=O)[O-])c2)cc(OC)c1OC is entered as 20.6 | – | –

(list continues)

Row | SMILES | cell number change [%] | AC50 [1] | AC50 [2]
20 | Nc1cc2ccncc2c2ccccc12 | 3.66 | – | 2.31 µM [rising, single point]
21 | COc1ccc(-c2nnc(Nc3ccc(CC(N)=O)cc3)c3ccccc23)cc1 | -13.8 | – | 23.1 µM [falling, partial curve, poor fit]
22 | Cc1ccc(NC(=O)Cc2nnc(SCC(=O)Nc3nncs3)n2C)cc1 | 24.8 | – | –
23 | COc1cccc(C(=O)COc2ccccc2-c2ccccc2)c1 | 15 | – | 8.2 µM [rising, partial curve, poor fit]
24 | Cc1nn(-c2ccccc2)c2c1C(O)CC(C)(C)C2 (configuration not stated) | -13.5 | – | 20.6 µM [rising, single point]
25 | CC(c1ccccc1)C1C(C#N)=C(N)SC(N)=C1C#N (configuration not stated) | -21.4 | – | 18.4 µM [rising, single point]
26 | CCOC(=O)C(=NC1CCCCC1)NNc1cccc(C(F)(F)F)c1 | -22.1 | – | –
27 | Clc1cnc(N/N=C/c2ccco2)c(Cl)c1 | 83.3 | 6.51 µM [falling, single point] | 4.61 µM [rising, full curve, poor fit]
28 | Cc1noc(C)c1COc1ccc(C(=O)N2CC(C)CC(C)C2)cc1 (configuration not stated) | -3.76 | – | 0.00411 µM [rising, full curve, poor fit]
29 | COC(=O)c1cccc(C23CC4(C2)[C@H](CN(Cc2ccc(C(F)(F)F)cc2)[C@@H]4c2ccccc2)C3c2ccc(C(F)(F)F)cc2)c1 (some centres not stated) | 36.7 | 29.1 µM [rising, single point] | 8.2 µM [rising, partial curve, poor fit]
30 | O=C(NCc1ccc(F)cc1)c1ccc(S(=O)(=O)Nc2cccc(C(F)(F)F)c2)cc1 | -30 | – | 0.0651 µM [falling, full curve, poor fit]
31 | CC(C)(C)c1ccc(OCC(=O)Nc2ccc3c4c(cccc24)C(=O)NC3=O)cc1 | -84.1 | 20.6 µM [falling, single point] | –
32 | Cc1ccc(S(=O)(=O)NC(CC(N)=O)C(=O)O)cc1 (configuration not stated) | -21.9 | 0.0058 µM [falling, full curve, poor fit] | 5.8 µM [falling, full curve]
33 | CN(C)C1C(=O)c2ccccc2C1=O | 30.5 | 29.1 µM [rising, single point] | –
34 | Cc1ccc(C)c(NC(=O)CCC(=O)NNC(=S)Nc2ccccc2)c1 | 38.4 | 14.6 µM [rising, partial curve] | –
35 | Cc1cccc2cc(C(c3nnnn3C3CCCC3)N3CCOCC3)c(=O)[nH]c12 (configuration not stated) | 78.9 | 3.66 µM [rising, partial curve] | 7.31 µM [rising, partial curve]
36 | CC(=O)Nc1cccc(Oc2ncnc3scc(-c4ccc(C(C)C)cc4)c23)c1 | 36.8 | 8.2 µM [rising, partial curve] | 8.2 µM [rising, partial curve]
37 | Cc1ccc2nc(C)c(C(=O)N/N=C/c3ccc(N4CCOCC4)cc3)cc2c1 | 14.9 | – | 4.11 µM [rising, partial curve]
38 | COc1cccc(N2CCN(S(=O)(=O)c3ccc4nc(-c5ccccc5)[nH]c4c3)CC2)c1 | – | 0.651 µM [rising, single point] | 2.31 µM [rising, partial curve]

Row | SMILES | cell number change [%] | AC50 [1] | AC50 [2]
39 | CCN1CCN(C(=O)CN(c2ccc(F)cc2)S(=O)(=O)c2ccc(OC)c(OC)c2)CC1 | 4.95 | – | –
40 | Cc1ccc(C(=O)NNC(=O)c2ccc(SCC3CCCO3)c([N+](=O)[O-])c2)cc1 (configuration not stated) | 13.4 | – | 2.91 µM [rising, partial curve]
41 | Cc1ccc2nsnc2c1NC(=O)COc1ccccc1 | -33 | 0.164 µM [falling, full curve, poor fit] | 18.4 µM [falling, partial curve, poor fit]
42 | Cc1cccc(N2CCN(S(C)(=O)=O)CC2)c1C | 1.2 | – | 29.1 µM [rising, single point]
43 | CCOC(=O)COc1cc2c(C(=O)OCC)c(C)oc2cc1Br | -1.88 | – | –
44 | Cc1nnn(-c2nonc2N)c1C(=O)NNC(=O)c1ccc(Cl)c(Cl)c1 | 31.7 | – | –
45 | Cc1ccc(C(=O)N2CCCC(CCC(=O)N3CCN(c4ccccn4)CC3)C2)cc1C (configuration not stated) | -5.1 | – | 29.1 µM [falling, single point]
46 | CC(C)CC1NC(=O)c2ccccc2-n2c1nc1cc(F)ccc1c2=O (configuration not stated) | -23.6 | 0.58 µM [falling, single point] | 9.2 µM [rising, partial curve]
47 | COc1ccc(C(=O)N2CCN(c3ccc(C)c(C)c3)CC2)cc1OC | -33.3 | 29.1 µM [falling, single point] | 29.1 µM [falling, partial curve, poor fit]
48 | CNC(=O)c1c(NC(=O)CCS(=O)(=O)c2ccc(F)cc2)sc(C)c1C | 29.7 | 1.16 µM [rising, full curve, poor fit] | –
49 | C/C(=C\C(=O)c1ccccc1)NNC(=O)c1ccc(Cl)cc1 | 5.47 | 0.164 µM [rising, full curve, poor fit] | –
50 | CC(C)NC(=O)NC(=O)CSc1nnc(COc2ccccc2F)n1C(C)C1CC2CCC1C2 (configuration not stated) | -59.1 | 29.1 µM [falling, single point] | 2.91 µM [falling, single point]
51 | COc1ccc(C)cc1S(=O)(=O)N1CCN(S(=O)(=O)c2cc(C)ccc2OC)C(C)C1 (configuration not stated) | – | 6.51 µM [falling, single point] | –
52 | CC(C)N1C(=O)C(=O)N(CC(=O)N2CCc3ccccc32)C1=O | 14.4 | – | 29.1 µM [rising, single point]
53 | O=C(O)CCCC(=O)N1CCCC1 | -17.6 | – | 32.6 µM [falling, single point]
54 | Cc1ccc(C(=O)NC(=S)NNC(=O)COc2ccc([N+](=O)[O-])cc2)cc1 | 8.7 | – | 6.51 µM [falling, single point]
55 | COc1ccccc1N1CCN(CCCCOc2cccc3ccccc23)CC1 | -44.9 | 29.1 µM [falling, single point] | 3.66 µM [rising, single point]
56 | O=C(CN1C(=O)NC2(CCCCC2)C1=O)N1CCN(S(=O)(=O)c2ccc(F)cc2)CC1 | -0.659 | – | –
57 | CC(C)(C)C(=O)N1NC(=Nc2ccccc2)SC1(C)C | -53.4 | 29.1 µM [falling, single point] | 32.6 µM [falling, single point]
